Results are given in words; binding and its absence hold for the method and conditions named. In cells and extracts the contact can be indirect. Some entries that bind do so weakly or less than the wild type.
What was measured:
[1] = molecular target: endogenous PD-L1 in B16-F10 and MC38 cells (mouse (endogenous in B16-F10 and MC38)) (UniProt Q9EP73); assay: co-IP; endogenous PD-L1 with RAB proteins and exocyst components in MC38, B16-F10 and A375 cells, control and MIB2 KO
[2] = molecular target: endogenous PD-L1 in B16-F10 and MC38 cells (mouse (endogenous in B16-F10 and MC38)) (UniProt Q9EP73); assay: proximity ligation; in situ PLA of PD-L1 and MIB2 in A375, B16-F10 and MC38 cells
[3] = molecular target: endogenous PD-L1 in B16-F10 and MC38 cells (mouse (endogenous in B16-F10 and MC38)) (UniProt Q9EP73); assay: co-IP; endogenous MIB2 and PD-L1 in A375, B16-F10 and MC38 cells

Chains of the proteins cited; added tags and fusions are not shown. Residues count along the entry.
UniProt Q9EP73, residues 19-290: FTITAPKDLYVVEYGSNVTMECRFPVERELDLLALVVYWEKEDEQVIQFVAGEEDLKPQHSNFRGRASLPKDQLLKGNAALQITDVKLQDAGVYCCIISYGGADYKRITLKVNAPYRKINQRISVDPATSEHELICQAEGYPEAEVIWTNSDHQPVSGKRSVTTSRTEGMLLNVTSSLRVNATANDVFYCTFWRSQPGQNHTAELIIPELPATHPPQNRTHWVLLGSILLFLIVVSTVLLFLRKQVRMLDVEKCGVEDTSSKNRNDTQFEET
UniProt O35382: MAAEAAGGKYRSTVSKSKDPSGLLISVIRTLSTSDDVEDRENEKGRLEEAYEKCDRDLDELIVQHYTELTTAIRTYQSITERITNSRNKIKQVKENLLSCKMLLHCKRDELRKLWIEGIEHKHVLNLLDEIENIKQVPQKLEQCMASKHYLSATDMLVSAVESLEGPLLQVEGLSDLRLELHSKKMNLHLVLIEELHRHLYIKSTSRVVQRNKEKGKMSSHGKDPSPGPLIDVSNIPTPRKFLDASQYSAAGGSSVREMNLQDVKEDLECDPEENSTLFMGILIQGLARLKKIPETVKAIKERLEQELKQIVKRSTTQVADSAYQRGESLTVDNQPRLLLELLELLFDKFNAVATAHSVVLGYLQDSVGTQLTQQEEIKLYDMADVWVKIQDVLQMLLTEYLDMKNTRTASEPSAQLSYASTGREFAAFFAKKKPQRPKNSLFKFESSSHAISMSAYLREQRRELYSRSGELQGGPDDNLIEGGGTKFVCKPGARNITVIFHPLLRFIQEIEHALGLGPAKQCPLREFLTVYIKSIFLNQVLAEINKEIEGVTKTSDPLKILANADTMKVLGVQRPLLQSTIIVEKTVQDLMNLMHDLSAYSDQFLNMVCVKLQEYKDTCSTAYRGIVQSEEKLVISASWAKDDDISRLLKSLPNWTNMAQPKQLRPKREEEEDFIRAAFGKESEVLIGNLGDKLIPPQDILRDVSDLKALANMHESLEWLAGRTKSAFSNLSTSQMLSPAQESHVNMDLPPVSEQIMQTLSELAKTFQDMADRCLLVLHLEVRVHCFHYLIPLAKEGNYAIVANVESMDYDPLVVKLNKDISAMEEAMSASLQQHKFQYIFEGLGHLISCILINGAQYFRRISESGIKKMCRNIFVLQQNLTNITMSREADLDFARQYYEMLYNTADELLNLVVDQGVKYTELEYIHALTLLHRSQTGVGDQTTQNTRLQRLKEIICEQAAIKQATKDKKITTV
UniProt Q9D4H1: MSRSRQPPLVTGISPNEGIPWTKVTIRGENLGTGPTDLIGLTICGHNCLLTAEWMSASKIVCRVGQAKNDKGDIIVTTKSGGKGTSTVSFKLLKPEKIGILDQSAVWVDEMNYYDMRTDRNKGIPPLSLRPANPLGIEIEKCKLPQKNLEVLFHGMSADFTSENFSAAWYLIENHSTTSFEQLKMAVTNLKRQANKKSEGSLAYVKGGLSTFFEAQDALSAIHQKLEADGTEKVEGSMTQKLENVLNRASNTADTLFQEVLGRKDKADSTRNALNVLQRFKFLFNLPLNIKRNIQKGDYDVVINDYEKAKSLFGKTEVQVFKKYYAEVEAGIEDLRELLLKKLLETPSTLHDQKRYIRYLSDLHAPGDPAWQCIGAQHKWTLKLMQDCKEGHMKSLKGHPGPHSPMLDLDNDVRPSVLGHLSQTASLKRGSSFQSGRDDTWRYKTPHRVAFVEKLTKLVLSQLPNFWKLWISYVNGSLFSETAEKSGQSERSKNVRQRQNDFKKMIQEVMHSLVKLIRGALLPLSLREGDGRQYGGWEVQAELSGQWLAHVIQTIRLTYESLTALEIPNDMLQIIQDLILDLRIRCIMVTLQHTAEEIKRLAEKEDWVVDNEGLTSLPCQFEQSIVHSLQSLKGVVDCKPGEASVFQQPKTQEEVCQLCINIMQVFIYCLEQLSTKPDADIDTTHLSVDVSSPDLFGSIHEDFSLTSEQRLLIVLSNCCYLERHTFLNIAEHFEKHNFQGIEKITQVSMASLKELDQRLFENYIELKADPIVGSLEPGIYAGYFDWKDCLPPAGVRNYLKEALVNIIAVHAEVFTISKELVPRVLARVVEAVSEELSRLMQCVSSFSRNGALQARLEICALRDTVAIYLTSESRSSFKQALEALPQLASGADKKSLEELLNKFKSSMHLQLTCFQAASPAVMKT

| Molecule | binding [1] | binding [2] | binding [3] |
| --- | --- | --- | --- |
| EXOC4 (from UniProt O35382 1-975) | binds |  |  |
| endogenous MIB2 in B16-F10 and MC38 cells (enzyme, UniProt Q8R516 1-973) MDLDPHAGVQVGMRVVRGMDWKWGQQDGGEGGVGTVVELGRHGSPSTPDRTVVVQWDQGTRTNYRAGYQGAHDLLLYDNAQIGIRHPNIICDCCKKHGLRGMRWKCRVCFDYDLCTQCYMHNKHDLTHAFERYETSHSRPVTLSPRQGLPRIPLRGIFQGAKVVRGPDWEWGSQDGGEGKTGRVVDIRGWDVETGRSVASVTWADGTTNVYRVGHKGKVDLRCVGEAAGGFYYKEHLPKLGKPAELQRRVSADGQPFQRGDKVKCLLDTDVLRDMQEGHGGWNPRMAEFIGQMGTVHRITDRGDVRVQFNHETRWTFHPGALTKHNSFWVGDVVRVIGDLDTVKRLQAGHGEWTDDMAPALGRVGKVVKVFGDGNLRVAVGGQRWTFSPSCLVAYRPEEDANLDVAERARENKSAASVSVAGSLSVALDKLRTQKSDPEHPGRLVVEAALGNVARALDLLRRHPEQASYHPALVVDTKNQGRTALQVAAYLGQVELVRLLLQARASMDLPDDEGNTVLHYTAMGNQPEATRVLLSAGCAVDARNGTRSTALHVAVQRGFLEVVKILCERGCDVNLPDAHADTPLHSAISAGAGASSIVEVLTEVPGIDVTATNSQGFTLLHHASLKGHVLAVRKILARARQLVDAKKEDGFTALHLAALNNHREVAQVLIREGRCDVNVRNRKLQSPLHLAVQQAHLGLVPLLVDAGCSVNTEDEEGDTALHVALQRHQLLPLVADRAGGDPGPLQLLSRLQASGLPGCTELTVGAAVACFLALEGADVSYANHRGRSPLDLATEGRVLKALQGCAQRFRERQAGGGGGVPPGPRHVLSTPNTVTNLHVSGTAGPEAAECLVCSELALLILFSPCQHRTVCEECARRMKKCIRCQVVISKKLRPDGSEVVNAIQVPGPPRQLVEELQSRYRQMEERITCPICIDSHIRLVFQCGHGACAPCGAALNACPICRQPIRDRIQIFV |  | binds | binds |

Next, values leading:

| binding [1] | binding [2] | binding [3] | Molecule |
| --- | --- | --- | --- |
| binds |  |  | EXOC2 (from UniProt Q9D4H1 1-924) |
| binds |  |  | RALGDS (protein, UniProt Q03385 1-852) MMVDCQSSTQEIGEELINGVIYSISLRKVQLHQGATKGQRWLGCENESALNLYETCKVRTVKAGTLEKLVEHLVPAFQGSDLSYVTVFLCTYRAFTTTQQVLDLLFKRYGRCDALTASSRYGCILPYSSEDGGPQDQLKNAISSILGTWLDQYSEDFCQPPDFPCLKQLVAYVQLNMPGSDLERRAHLLLAQLEDLEPSEAESEALSPAPVLSLKPASQLEPALLLTPSQVVTSTPVREPAAAPVPVLASSPVVAPAPELEPVPEPPQEPEPSLALAPELEPAVSQSLELESAPVPTPALEPSWSLPEATENGLTEKPHLLLFPPDLVAEQFTLMDAELFKKVVPYHCLGSIWSQRDKKGKEHLAPTIRATVAQFNNVANCVITTCLGDQSMKAPDRARVVEHWIEVARECRALKNFSSLYAILSALQSNAIHRLKKTWEEVSRDSFRVFQKLSEIFSDENNYSLSRELLIKEGTSKFATLEMNPRRAQRRQKETGVIQGTVPYLGTFLTDLVMLDTAMKDYLYGRLINFEKRRKEFEVIAQIKLLQSACNNYSIAPEEHFGTWFRAMERLSEAESYTLSCELEPPSESASNTLRSKKSTAIVKRWSDRQAPSTELSTSSSAHSKSCDQLRCSPYLGSGDITDALSVHSAGSSSSDVEEINMSFVPESPDGQEKKFWESASQSSPETSGISSASSSTSSSSASTTPVSTTRTHKRSVSGVCSYSSSLPLYNQQVGDCCIIRVSLDVDNGNMYKSILVTSQDKAPTVIRKAMDKHNLDEDEPEDYELVQIISEDHKLKIPENANVFYAMNSTANYDFILKKRTFTKGAKVKHGASSTLPRMKQKGLRIAKGIF |
